## Assay results

By UniProt entry, the sequences of proteins in these tests, tags left out.
UniProt P04637, whole entry, target on record: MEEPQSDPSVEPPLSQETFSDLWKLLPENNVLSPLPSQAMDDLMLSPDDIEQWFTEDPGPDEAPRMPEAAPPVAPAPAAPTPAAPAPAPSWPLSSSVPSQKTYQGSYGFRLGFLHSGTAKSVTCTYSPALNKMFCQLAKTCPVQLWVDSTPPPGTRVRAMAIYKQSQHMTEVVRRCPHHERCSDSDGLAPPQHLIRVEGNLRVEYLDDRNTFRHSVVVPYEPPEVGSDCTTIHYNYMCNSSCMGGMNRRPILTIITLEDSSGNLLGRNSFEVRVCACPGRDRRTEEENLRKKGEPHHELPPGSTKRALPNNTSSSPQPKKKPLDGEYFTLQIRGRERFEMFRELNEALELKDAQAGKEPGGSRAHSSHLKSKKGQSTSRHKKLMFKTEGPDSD

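In a human colon-derived line, p53-driven reporter induction is tracked by a fluorescence ratio measured one day after chemical exposure. Each chemical was run as a concentration series and the AC50 was fitted from that curve; the exact range is not stated here. AC50 is the concentration giving half of the maximal fitted rise in reporter signal; a lower value means greater potency. A fitted-curve hit score of 0.9 or more is active and a score below 0.9 is inactive; inconclusive means the response went in the unintended direction.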

Values are in µM. Every entry below has the call inconclusive. Only part of the assay is shown, chiefly results filed as inconclusive. Activity scores are not listed here. An entry listed twice with the same setting is a separate test.

| # | Compound | AC50 (µM) |
|---|---|---|
| 1 | `CCC(C)CO` (configuration not stated) | 46.08 |
| 2 | `CC(C)c1ccc(C=O)cc1` | 46.08 |
| 3 | `Nc1ccc(S(=O)(=O)Nc2nccs2)cc1` | 46.08 |
| 4 | `COC(=O)C(C)Oc1ccc(Oc2ccc(Cl)cc2Cl)cc1` (configuration not stated) | 46.08 |
| 5 | `CC(C)CCCCCCCOC(=O)c1ccccc1C(=O)OCCCCCCCC(C)C` | 46.15 |
| 6 | `CN(C)CCC=C1c2ccccc2CCc2ccccc21` | 19.81 |
| 7 | `CN(C)CCO` | 46.36 |
| 8 | `Nc1ccc(Cl)c(Cl)c1` | 46.08 |
| 9 | `O=C(O)CC(O)(CC(=O)O)C(=O)O` | 85.79 |
| 10 | `O=C1C[C@@H]2OCC=C3CN4CC[C@]56c7ccccc7N1[C@H]5[C@H]2[C@H]3C[C@H]46` | 23.04 |
| 11 | `O=[N+]([O-])c1cc([As](=O)(O)O)ccc1O` | 45.81 |
| 12 | `CCCCCCCCSC(=O)Oc1cc(Cl)nnc1-c1ccccc1` | 71.92 |
| 13 | `CCCCCOC(=O)c1ccccc1C(=O)OCCCCC` | 45.98 |
| 14 | `CN(C)CCO` | 46.08 |
| 15 | `CCc1nccnc1C` | 46.08 |
| 16 | `Cc1cccc(N)c1` | 46.21 |
| 17 | `O=C(O)CC(O)(CC(=O)O)C(=O)O` | 2.894 |
| 18 | `OCC(O)CCl` (configuration not stated) | 46.08 |
| 19 | `COP(=S)(OC)Oc1ccc(Sc2ccc(OP(=S)(OC)OC)cc2)cc1` | 23.04 |
| 20 | `O=c1ccc2ccccc2o1` | 46.08 |
| 21 | `O=c1c(O)c(-c2ccc(O)cc2O)oc2cc(O)cc(O)c12` | 67.67 |
| 22 | `CC(C)CCCCCCOC(=O)c1ccccc1C(=O)OCCCCCCC(C)C` | 18.3 |
| 23 | `COCC(=O)N(c1c(C)cccc1C)N1CCOC1=O` | 46.08 |
| 24 | `COc1ccc(C=O)cc1OC` | 46.5 |

2 of the entries, repeated:

* CN(C)CCC=C1c2ccccc2CCc2ccccc21 : AC50 19.81 µM
* COP(=S)(OC)Oc1ccc(Sc2ccc(OP(=S)(OC)OC)cc2)cc1 : AC50 23.04 µM

The results are deposited in PubChem (AID2283601; EPA ToxCast, 2025).